Measured values from publication PMC5736545.
These are yes or no findings as the source states them, for the method shown. For part of these data: Binding seen in cells or lysates may run through a third protein. Some binding calls cover weakened binding; strength is not graded here. For part of these data: Sequences can lack the tags named with a protein.

Sequences of proteins named here, by UniProt entry; tags and fusion partners are left off. A line that says so, or that is headed by a name, gives the form on record, which may keep a tag or linker. Residues count along the entry.
MAP1B (2167–2468), library clone in pGADT7 (P46821, residues 2167-2468): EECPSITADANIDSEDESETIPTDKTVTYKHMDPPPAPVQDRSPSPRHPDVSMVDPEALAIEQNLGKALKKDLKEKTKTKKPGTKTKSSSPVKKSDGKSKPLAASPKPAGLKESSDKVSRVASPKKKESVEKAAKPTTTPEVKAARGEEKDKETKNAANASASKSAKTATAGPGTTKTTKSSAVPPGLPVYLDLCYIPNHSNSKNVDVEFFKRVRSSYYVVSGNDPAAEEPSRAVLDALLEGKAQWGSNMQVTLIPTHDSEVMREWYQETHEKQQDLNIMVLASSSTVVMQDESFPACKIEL
GFP-tagged LC1 (P46821, residues 2207-2468): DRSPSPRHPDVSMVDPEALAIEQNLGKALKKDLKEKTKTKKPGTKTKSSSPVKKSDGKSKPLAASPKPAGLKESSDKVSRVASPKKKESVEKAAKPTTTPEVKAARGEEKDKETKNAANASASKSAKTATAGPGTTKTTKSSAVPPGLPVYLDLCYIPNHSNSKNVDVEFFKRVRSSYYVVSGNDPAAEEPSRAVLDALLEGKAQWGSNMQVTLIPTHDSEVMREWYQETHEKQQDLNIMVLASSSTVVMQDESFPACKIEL

Experiments:
[1] = target: GFP-tagged PiT2 (human) (UniProt Q08357); experiment: co-IP; HeLa cells co-transfected with PiT2 and LC1 vectors; lysates immunoprecipitated with anti-GFP antibody or control IgG
[2] = target: GFP-tagged LC1 (human) (UniProt P46821); experiment: as above
[3] = target: T1, PiT2 loop7 domain (residues 235–482) fused to the Gal4 DNA-binding domain (human) (UniProt Q08357); experiment: two-hybrid; library screen by yeast mating: bait pGBKT7-loop7 in Y187, prey human fetal brain cDNA library; selection on SD-Leu/Trp/His/Ade, X-Gal
T1 sequence: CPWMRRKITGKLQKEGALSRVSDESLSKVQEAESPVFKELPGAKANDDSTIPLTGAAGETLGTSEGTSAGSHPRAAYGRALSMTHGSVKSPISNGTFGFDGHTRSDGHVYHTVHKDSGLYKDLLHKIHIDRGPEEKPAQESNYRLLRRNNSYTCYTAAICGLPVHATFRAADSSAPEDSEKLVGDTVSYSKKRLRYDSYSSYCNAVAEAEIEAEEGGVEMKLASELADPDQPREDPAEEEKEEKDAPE

Q: For “FLAG-LC1 fusion protein (from UniProt P46821 2207-2468) (domain or fragment)”, which binding [1] is on record?
A: binds

Q: “Flag-tagged PiT2 (from UniProt Q08357 1-652)” was tested. Which binding [2] did it give?
A: binds

Q: “MAP1B (2167–2468), library clone in pGADT7 (from UniProt P46821 2167-2468) (domain or fragment)” was tested. Which binding [3] did it give?
A: binds
